Values quoted from earlier work in PMC2695546 (Psychopharmacology, 2009).

Biological target: NMDA receptors
Details: ref Whittemore et al. [1997]; Coughenour and Cordon [1997]; cited from earlier work

For O=C(CCCN1CCC(O)(c2ccc(Cl)cc2)CC1)c1ccc(F)cc1 [Haloperidol, haloperidol], which “Ki for NMDA receptors” value is on record?
Its value is “micromolar range”.
